Measured data: PubChem BioAssay AID504744 (Drosophila RNAi Screening Center, 2011)

- Test: 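Find genes whose loss alters insulin-driven dAkt phosphorylation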 (primary screen)
- Cell system: Drosophila Kc167 cells
- Knock-down reagent: long dsRNA against Drosophila genes, 250 ng dsRNA per well of a 384-well plate
- Time to read-out: 3 days of knock-down, then overnight serum-free starvation before stimulation
- Treatment: bovine insulin at 387 nM for 10 minutes after 12 h without serum
- Read-out: 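In-cell antibody fluorescence for phospho-dAkt in each well over DNA-dye signal, with log2 residuals expressed as z-scores adjusted for cell count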
- Active means: 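Under insulin, a gene counts as a hit if the average z-score of two replicates lies above 2.5 or below -2.5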
In all, the deposit lists about 23,000 reagents; shown is an unselected part of those with a known target gene and a result. In the full data, 98 (0.43%) are marked active. 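Only hit calls are given; the phospho-dAkt signals, z-scores and hit direction were not deposited.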 The numbers tell different reagents against one gene apart. A plus sign joins genes that one reagent is predicted to hit.

The opening 4 records, ahead of the listing:
target gene	reagent	Call
Obp85a (GeneID 41006)	1	inactive
Rh4 (GeneID 39887)	1	inactive
Agps (GeneID 36669)	1	inactive
PlexB (GeneID 43766)	1	inactive

Results, from the first entry:
target gene	reagent	Call
Obp85a (GeneID 41006)	1	inactive
Rh4 (GeneID 39887)	1	inactive
Agps (GeneID 36669)	1	inactive
PlexB (GeneID 43766)	1	inactive
Usp20-33 (GeneID 36580)	1	inactive
COX7B (GeneID 50266)	1	inactive
CG10638 (GeneID 39424)	1	inactive
CG17048 (GeneID 36479)	1	inactive
CG12551 (retired record) (GeneID 35518)	1	inactive
CG12551 (retired record) (GeneID 35518)	2	inactive
CG8435 (GeneID 36789)	1	inactive
CG14624 (GeneID 31068)	1	inactive
Ugt35B1 (GeneID 41333)	1	inactive
Or43b (GeneID 35743)	1	inactive
CG4911 (GeneID 39043)	1	inactive
CG5397 (GeneID 33313)	1	inactive
CG32104 (GeneID 39413)	1	inactive
CG32104 (GeneID 39413)	2	inactive
CG11192 (GeneID 37309)	1	inactive
htl (GeneID 42160)	1	inactive
CG9547 (GeneID 33911)	1	inactive
CG14615 (GeneID 33129)	1	inactive
lncRNA:CR32730 (GeneID 3772297)	1	inactive
Glg1 (GeneID 40382)	1	inactive
Glg1 (GeneID 40382)	2	inactive
Glg1 (GeneID 40382)	3	inactive
Or65a (GeneID 318011)	1	inactive
Cc2d2a (GeneID 36982)	1	inactive
Tmx3 (GeneID 39775)	1	inactive
CG31370 (GeneID 43060)	1	inactive
AANATL6 (GeneID 37212)	1	inactive
Cys (GeneID 41767)	1	inactive
Spc105R (GeneID 40300)	1	inactive
CG6675 (GeneID 35439)	1	inactive
escl (GeneID 34611)	1	inactive
CG32809 (GeneID 31121)	1	inactive
CG32809 (GeneID 31121)	2	inactive
CG32809 (GeneID 31121)	3	inactive
CG5290 (GeneID 39998)	1	inactive
sgll (GeneID 40925)	1	inactive
CG33262 (GeneID 2768975)	1	inactive
Acadvl (GeneID 37217)	1	inactive
CG6005 (GeneID 42279)	1	inactive
Hakai (GeneID 35256)	1	inactive
Zcchc7 (GeneID 39883)	1	inactive
dtr (GeneID 318856)	1	inactive
CG9304 (GeneID 37500)	1	inactive
CG42568 + DnaJ-60	1	inactive
CG42568 + DnaJ-60	2	inactive
Mcm6 (GeneID 31603)	1	inactive
CG9411 (GeneID 32392)	1	active
CG14657 (GeneID 40602)	1	inactive
CG14657 (GeneID 40602)	2	inactive
LManI (GeneID 34436)	1	inactive
E(spl)malpha-BFM (GeneID 43153)	1	inactive
Ms (GeneID 44324)	1	inactive
Ir7a (GeneID 31686)	1	inactive
snoRNA:Me28S-C3227a + snoRNA:Me18S-A1061 + snoRNA:Me28S-C3227b + 7 more	1	inactive
HIPP1 (GeneID 40302)	1	inactive
TfAP-2 (GeneID 40398)	1	inactive
CG14205 (GeneID 32952)	1	inactive
CG10845 (GeneID 42978)	1	inactive
Zir (GeneID 33165)	1	inactive
Naa30A (GeneID 31079)	1	inactive
